Source: patent US20020046426A1, “Application of carbonyl compounds in the process of tanning hides” (RHODIA BRASIL LTDA., priority 1999, published 2002)

Test: Residual chrome in the tanning bath after pre-treatment of hides with the carbonyl compound and chrome tanning

Structure (SMILES): CC(=O)CC(C)(C)O [diacetone alcohol]
- chromium in residual bath (Example 2: 3% diacetone alcohol for 2 hours, bath pH 5.5 to 5.7, 6% basic chrome sulfate, 13 hours, no pickling): 0.04%
- chrome in residual bath (Example 3: 2% diacetone alcohol for 2 hours, bath pH 5.5 to 6.0, 4% basic chrome sulfate, 15 hours, no pickling): 0.026%
- chrome in residual bath (Example 4: 0.1% formic acid, 2% diacetone alcohol for 2 hours, bath pH 4.0 to 4.2, 4% basic chrome sulfate, 13 hours): 0.04%
- chrome in residual bath (Example 5: 1700 kg hide, 2% diacetone alcohol for 2 hours, 4.5% basic chrome sulfate, 8 hours, then 45° C. and 5 hours): 0.08%
